Assay results as given in patent publication US20080171037A1, “Apo-3 ligand polypeptide” (Genentech, Inc., priority 1997, published 2008).
No constants are given. Whether binding was seen depends on the method and setting. For part of these data: In cells and extracts the contact can be indirect. Some results given as binding are weak or reduced against the parent protein; the word gives no strength. Sequences can lack the tags named with a protein.

What was measured:
[1] = target: T1, Flag-epitope tagged soluble Apo-3 (human) (UniProt Q93038); assay: Western blot of co-immunoprecipitated ligands/receptors (legend of FIG. 8A)
T1 sequence (looked up): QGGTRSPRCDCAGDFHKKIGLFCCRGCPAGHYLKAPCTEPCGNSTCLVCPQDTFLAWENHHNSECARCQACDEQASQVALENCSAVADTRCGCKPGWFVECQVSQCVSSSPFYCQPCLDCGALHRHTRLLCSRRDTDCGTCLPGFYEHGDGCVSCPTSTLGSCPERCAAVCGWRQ

[2] = target: T1, Flag-epitope tagged soluble Apo-3 (human); assay: apoptosis assay after immunodepletion of ligand-receptor complexes (legend of FIG. 8B)
[3] = target: T1, Flag-epitope tagged soluble Apo-3 (human); assay: co-immunoprecipitation (anti-Flag sepharose or nickel-sepharose), Western blot with nickel-conjugated HRP

Measured: binding

B1: His-tagged soluble Apo-3 Ligand (ligand)
chain: MGHHHHHHHHHHSSGHIDDDDKHMRASLSAQEPAQEELVAEEDQDPSELNPQTEESQDPAPFLNRLVRPRRSAPKGRKTRARRAIAAHYEVHPRPGQDGAQAGVDGTVSGWEEARINSSSPLRYNRQIGEFIVTRAGLYYLYCQVHFDEGKAVYLKLDLLVDGVLALRCLEEFSATAASSLGPQLRLCQVSGLLALRPGSSLRIRTLPWAHLKAAPFLTYFGLFQVH
binds: all assays above
